Laboratory results reported in the supplement of paper PMC10849652.
The list shows a part of the results.

Protein sequences, listed by entry. Tags and fused reporters are not part of them. Lines headed by an entry give the natural chain unless they say otherwise; changes in a name come on top.
UniProt Q8TAP9: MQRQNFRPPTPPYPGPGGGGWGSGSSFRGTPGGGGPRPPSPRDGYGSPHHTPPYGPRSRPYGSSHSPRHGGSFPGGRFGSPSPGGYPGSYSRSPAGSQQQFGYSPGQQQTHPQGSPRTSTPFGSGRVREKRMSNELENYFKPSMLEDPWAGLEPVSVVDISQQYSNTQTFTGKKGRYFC
UniProt Q96EN8: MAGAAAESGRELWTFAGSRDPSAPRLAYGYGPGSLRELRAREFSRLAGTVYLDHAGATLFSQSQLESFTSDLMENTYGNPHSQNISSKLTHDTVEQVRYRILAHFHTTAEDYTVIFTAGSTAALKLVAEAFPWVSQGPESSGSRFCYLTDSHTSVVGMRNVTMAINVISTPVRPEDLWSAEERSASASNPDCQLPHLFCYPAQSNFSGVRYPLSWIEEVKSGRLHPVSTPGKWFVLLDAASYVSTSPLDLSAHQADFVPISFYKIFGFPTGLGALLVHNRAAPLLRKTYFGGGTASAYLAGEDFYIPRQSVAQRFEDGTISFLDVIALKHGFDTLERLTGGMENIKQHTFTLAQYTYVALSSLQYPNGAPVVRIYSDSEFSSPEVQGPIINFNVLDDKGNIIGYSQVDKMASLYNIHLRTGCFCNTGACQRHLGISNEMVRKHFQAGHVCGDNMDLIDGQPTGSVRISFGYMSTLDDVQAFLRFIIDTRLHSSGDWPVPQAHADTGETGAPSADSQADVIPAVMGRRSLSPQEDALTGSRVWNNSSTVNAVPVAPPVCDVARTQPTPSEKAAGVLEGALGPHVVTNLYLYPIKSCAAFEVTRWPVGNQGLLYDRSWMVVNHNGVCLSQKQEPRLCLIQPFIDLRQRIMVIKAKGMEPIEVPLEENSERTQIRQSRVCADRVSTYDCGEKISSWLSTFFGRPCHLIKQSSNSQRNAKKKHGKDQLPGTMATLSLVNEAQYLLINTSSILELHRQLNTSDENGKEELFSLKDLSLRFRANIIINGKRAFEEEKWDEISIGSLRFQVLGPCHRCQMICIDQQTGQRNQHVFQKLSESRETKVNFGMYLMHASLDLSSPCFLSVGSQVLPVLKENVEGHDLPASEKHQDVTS
UniProt P14174: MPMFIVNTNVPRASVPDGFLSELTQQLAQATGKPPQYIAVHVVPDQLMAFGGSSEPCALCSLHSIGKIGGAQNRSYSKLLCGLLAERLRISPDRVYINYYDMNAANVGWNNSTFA
UniProt O00566: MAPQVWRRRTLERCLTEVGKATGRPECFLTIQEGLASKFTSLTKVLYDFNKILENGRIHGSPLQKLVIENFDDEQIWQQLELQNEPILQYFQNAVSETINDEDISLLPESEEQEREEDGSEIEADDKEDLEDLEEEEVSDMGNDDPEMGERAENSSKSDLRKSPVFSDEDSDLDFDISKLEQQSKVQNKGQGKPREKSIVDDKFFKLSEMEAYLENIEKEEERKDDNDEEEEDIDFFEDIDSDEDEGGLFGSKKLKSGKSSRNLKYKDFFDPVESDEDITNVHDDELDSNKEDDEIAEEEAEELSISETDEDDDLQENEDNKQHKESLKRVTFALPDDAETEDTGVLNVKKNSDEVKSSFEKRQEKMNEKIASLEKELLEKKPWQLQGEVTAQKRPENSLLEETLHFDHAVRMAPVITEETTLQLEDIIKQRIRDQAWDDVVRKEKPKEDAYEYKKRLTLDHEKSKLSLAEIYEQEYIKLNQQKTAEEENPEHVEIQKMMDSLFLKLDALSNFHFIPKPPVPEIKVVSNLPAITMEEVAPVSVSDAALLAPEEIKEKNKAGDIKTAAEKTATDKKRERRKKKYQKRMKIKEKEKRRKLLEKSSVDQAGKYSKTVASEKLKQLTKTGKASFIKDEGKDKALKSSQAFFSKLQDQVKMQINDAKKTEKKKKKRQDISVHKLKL
UniProt Q99797: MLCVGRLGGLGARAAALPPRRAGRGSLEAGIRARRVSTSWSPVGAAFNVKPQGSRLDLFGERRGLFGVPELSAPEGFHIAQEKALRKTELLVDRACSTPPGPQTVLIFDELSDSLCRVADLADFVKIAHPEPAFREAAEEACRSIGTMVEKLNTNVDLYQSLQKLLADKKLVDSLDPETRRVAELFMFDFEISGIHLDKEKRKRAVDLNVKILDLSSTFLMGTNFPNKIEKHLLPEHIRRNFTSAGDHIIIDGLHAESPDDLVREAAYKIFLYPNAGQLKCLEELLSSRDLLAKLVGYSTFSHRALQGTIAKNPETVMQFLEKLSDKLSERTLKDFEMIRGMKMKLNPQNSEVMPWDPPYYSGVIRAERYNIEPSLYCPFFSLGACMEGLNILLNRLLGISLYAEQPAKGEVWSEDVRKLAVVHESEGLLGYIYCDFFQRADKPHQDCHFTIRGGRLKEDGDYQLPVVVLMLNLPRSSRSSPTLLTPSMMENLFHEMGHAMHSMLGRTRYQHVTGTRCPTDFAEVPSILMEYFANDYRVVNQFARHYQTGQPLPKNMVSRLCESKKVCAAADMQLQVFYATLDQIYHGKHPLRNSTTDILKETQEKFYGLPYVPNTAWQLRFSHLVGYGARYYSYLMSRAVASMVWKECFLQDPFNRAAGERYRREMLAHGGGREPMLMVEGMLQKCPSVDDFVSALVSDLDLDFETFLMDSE
UniProt Q5TGZ0: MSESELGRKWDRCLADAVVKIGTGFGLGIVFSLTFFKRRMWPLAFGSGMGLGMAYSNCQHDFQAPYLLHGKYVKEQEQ
UniProt Q9HAP2: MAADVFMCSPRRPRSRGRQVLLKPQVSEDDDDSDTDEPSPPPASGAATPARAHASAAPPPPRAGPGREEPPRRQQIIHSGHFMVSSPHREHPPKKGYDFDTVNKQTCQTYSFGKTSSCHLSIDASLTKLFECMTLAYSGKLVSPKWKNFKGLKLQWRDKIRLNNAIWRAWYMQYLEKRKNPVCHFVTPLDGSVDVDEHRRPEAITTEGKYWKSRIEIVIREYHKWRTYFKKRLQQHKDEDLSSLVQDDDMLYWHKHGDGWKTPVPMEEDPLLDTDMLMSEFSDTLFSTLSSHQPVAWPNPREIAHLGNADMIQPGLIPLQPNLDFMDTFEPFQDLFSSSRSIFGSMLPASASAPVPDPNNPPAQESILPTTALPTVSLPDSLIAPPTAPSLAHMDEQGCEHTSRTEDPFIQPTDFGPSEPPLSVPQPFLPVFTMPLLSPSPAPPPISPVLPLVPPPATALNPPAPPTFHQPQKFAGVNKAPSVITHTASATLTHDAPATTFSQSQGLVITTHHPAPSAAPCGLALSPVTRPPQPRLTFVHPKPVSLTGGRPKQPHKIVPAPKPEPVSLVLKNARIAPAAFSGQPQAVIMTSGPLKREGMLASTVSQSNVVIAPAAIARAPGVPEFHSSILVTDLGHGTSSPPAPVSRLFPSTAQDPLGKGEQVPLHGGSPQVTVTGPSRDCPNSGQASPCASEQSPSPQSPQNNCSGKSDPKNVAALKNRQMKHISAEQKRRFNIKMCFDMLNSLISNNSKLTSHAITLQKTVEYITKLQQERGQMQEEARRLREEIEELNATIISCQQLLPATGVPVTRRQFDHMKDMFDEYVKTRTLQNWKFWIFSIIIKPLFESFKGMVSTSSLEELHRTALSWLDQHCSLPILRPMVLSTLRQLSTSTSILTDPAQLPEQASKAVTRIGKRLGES
UniProt Q9UHC7: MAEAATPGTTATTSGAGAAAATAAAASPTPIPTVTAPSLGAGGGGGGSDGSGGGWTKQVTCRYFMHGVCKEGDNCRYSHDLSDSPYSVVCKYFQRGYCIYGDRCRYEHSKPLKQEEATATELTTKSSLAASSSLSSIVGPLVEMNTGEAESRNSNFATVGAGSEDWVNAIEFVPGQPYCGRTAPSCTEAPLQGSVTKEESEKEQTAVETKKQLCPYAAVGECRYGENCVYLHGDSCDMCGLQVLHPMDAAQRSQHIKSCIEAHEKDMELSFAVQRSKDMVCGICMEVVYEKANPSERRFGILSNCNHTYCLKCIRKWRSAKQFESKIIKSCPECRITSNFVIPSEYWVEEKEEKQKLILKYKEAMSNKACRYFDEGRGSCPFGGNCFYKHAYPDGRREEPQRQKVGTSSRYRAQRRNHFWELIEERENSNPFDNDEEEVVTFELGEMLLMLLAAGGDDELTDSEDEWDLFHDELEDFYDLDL
UniProt O95563: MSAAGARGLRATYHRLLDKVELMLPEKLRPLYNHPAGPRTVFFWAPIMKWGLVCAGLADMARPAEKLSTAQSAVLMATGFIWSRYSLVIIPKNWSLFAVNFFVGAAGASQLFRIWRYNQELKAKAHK
UniProt Q9BVC4, whole entry, looked up: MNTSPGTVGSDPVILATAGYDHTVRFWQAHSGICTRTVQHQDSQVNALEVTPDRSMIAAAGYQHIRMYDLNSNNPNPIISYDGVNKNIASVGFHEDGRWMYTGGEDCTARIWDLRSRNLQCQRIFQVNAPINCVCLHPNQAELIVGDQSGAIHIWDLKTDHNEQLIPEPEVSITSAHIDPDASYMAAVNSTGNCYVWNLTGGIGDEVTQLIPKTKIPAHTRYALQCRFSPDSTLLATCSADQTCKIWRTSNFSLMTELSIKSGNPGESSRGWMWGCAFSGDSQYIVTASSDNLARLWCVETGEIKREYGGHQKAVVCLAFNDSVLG
UniProt P26572: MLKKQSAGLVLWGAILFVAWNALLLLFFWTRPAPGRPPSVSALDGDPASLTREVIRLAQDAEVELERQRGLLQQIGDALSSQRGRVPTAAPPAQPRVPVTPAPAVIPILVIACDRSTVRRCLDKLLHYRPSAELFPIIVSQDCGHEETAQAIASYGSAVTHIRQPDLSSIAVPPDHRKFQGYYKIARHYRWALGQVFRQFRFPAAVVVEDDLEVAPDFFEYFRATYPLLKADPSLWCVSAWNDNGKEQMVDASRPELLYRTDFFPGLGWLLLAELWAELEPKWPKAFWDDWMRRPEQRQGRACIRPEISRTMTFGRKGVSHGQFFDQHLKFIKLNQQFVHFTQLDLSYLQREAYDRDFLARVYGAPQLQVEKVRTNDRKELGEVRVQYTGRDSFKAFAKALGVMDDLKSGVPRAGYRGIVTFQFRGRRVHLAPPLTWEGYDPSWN
UniProt Q8NDA8: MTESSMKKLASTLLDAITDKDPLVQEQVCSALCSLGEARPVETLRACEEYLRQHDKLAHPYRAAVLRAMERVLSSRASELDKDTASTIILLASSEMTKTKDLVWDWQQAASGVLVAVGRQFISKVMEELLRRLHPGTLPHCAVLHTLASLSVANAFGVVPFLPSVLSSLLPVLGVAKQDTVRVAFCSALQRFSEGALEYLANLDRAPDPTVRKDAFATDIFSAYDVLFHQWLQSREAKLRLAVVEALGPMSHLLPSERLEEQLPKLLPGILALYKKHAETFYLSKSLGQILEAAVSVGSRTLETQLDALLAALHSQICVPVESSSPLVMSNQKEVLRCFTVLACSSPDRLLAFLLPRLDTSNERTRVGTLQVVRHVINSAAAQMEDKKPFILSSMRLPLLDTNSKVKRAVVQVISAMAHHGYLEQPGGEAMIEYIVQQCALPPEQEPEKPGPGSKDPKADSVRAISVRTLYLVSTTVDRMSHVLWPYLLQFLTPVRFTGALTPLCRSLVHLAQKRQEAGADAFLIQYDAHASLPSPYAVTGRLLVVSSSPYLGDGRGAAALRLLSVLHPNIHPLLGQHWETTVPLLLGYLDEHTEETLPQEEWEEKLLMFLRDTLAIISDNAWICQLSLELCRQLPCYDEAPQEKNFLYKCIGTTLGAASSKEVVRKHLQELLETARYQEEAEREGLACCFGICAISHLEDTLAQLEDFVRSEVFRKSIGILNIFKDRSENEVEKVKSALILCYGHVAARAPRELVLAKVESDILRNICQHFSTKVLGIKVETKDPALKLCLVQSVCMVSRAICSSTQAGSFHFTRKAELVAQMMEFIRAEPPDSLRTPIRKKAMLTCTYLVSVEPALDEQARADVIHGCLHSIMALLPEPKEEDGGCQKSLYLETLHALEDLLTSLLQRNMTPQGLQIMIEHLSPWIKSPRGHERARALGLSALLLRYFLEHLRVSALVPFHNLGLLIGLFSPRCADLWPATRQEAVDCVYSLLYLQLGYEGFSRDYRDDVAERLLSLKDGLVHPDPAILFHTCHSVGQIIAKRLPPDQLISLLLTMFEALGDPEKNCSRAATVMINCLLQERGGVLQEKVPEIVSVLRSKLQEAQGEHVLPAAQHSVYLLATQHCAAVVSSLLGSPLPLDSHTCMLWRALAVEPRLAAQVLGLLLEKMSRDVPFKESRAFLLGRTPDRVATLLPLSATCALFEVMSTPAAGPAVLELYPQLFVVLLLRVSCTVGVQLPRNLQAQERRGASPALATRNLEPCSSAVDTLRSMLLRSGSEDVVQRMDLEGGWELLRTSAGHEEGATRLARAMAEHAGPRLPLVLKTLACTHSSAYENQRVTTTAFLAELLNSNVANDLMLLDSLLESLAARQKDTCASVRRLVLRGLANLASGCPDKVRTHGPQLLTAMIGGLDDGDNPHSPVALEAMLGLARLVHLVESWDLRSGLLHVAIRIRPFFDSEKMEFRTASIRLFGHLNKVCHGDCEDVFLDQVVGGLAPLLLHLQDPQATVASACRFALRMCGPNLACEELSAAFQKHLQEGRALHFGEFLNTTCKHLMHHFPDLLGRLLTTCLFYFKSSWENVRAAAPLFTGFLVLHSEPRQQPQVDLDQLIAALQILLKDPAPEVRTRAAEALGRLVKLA

What was measured:
Assay in all cases: log2 fold change, soluble protein after heating vs DMSO (PISA); higher = thermal stabilisation; K562 lysate, 10 uM; active = over 0.2 and 3.5 SD of the protein, either way, in both replicates (recomputed)
erlotinib = compound: C#Cc1cccc(Nc2ncnc3cc(OCCOC)c(OCCOC)cc23)c1 [erlotinib]
How it was run: (§1)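 Log-two fold change in thermal stability relative to solvent controls is reported from duplicates. For each sample, crude K562 extract from dounce-homogenised pellets in PBS pH 7.4 with 1 mM MgCl2, at 1 mg/mL protein, was treated with 10 μM compound for 30 min. Aliquots heated for 3 min across 48°C-58°C were pooled, brought to 0.5% NP-40 at 4°C and cleared at 21,000xg for 90 min. The supernatant was quantified by TMTpro 16plex LC-MS/MS with channel sums equalised.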

[1] = compound: C/C(=N\NC(=O)C1=CC(=CC=C1)S(=O)(=O)N2CCOCC2)/C3=C(C=CC(=C3)Cl)O
How it was run: as §1

[2] = compound: C1=CC(=CC=C1C2=NC3=C(N2)C=C(C=C3)C(=O)N)OC4=CC=C(C=C4)Cl
How it was run: as §1

[3] = compound: C1=CC2=C(C=CC(=C2)/C=C\3/C(=O)NC(=NCC4=CC=CS4)S3)N=C1
How it was run: as §1

[4] = compound: C1=CC2=NC=CN=C2C=C1/C=C/3\C(=O)NC(=O)S3
How it was run: as §1

[5] = compound: C1=CC=C(C=C1)C2=NC(=C(N2)C3=CC=NC=C3)C4=CC(=C(C=C4)Cl)O
How it was run: as §1

[6] = compound: C1=CC=C2C(=C1)C3=NNC4=CC=CC(=C43)C2=O
How it was run: as §1

[7] = compound: C1CCN(C1)C(=O)NC2=CC=CC(=C2)NC3=NC=C(C(=N3)NCCC4=CN=CN4)Br
How it was run: as §1

[8] = compound: C1CN(CCC1(CC2=CC=C(C=C2)Cl)N)C3=NC=NC4=C3C=CN4
How it was run: as §1

IRAK-1-4 Inhibitor I = compound: C1COCCN1CCN2C3=CC=CC=C3N=C2NC(=O)C4=CC(=CC=C4)[N+](=O)[O-] [IRAK-1-4 Inhibitor I]
How it was run: as §1

Measured: log2 fold change

MORC3 (UniProt Q14149)
inactive: erlotinib 0.02 | [1] -0.047 | [2] -0.005 | [3] 0.01 | [4] -0.025 | [5] 0.034 | [6] -0.033 | [7] -0.029 | [8] 0.002 | IRAK-1-4 Inhibitor I -0.011

MINPP1 (UniProt Q9UNW1)
inactive: erlotinib 0.004 | [1] -0.007 | [2] 0.021 | [3] 0.027 | [4] -0.011 | [5] 0.003 | [6] 0.026 | [7] 0.027 | [8] -0.027 | IRAK-1-4 Inhibitor I -0.017

MPHOSPH8 (UniProt Q99549)
inactive: erlotinib -0.234 | [1] 0.026 | [2] -0.214 | [3] 0.146 | [4] -0.23 | [5] 0.098 | [6] -0.111 | [7] -0.222 | [8] -0.034 | IRAK-1-4 Inhibitor I 0.073

MPLKIP (UniProt Q8TAP9)
inactive: erlotinib -0.074 | [1] -0.161 | [2] -0.049 | [3] 0.049 | [4] 0.031 | [5] -0.096 | [6] 0.01 | [7] -0.014 | [8] -0.019 | IRAK-1-4 Inhibitor I 0.043

MIER3 isoform 2 (UniProt Q7Z3K6)
inactive: erlotinib 0.085 | [1] -0.014 | [2] -0.065 | [3] -0.003 | [4] -0.114 | [5] 0.02 | [6] -0.059 | [7] -0.007 | [8] 0.001 | IRAK-1-4 Inhibitor I 0.024

MPDU1 (UniProt O75352)
inactive: erlotinib 0.049 | [1] -0.144 | [2] 0.049 | [3] -0.045 | [4] 0.119 | [5] -0.022 | [6] 0.063 | [7] -0.029 | [8] 0.031 | IRAK-1-4 Inhibitor I 0.035

MOCOS (UniProt Q96EN8)
inactive: erlotinib 0.02 | [1] -0.064 | [2] 0.028 | [3] -0.007 | [4] -0.011 | [5] -0.033 | [6] 0.045 | [7] 0.078 | [8] 0.002 | IRAK-1-4 Inhibitor I -0.012

MIF (UniProt P14174)
inactive: erlotinib 0.006 | [1] 0.003 | [2] -0.021 | [3] -0.045 | [4] -0.007 | [5] -0.009 | [6] 0.047 | [7] -0.023 | [8] 0.032 | IRAK-1-4 Inhibitor I 0.058

MPHOSPH10 (UniProt O00566)
inactive: erlotinib -0.012 | [1] 0.017 | [2] -0.048 | [3] 0.009 | [4] -0.017 | [5] 0.002 | [6] 0.038 | [7] 0.026 | [8] 0.031 | IRAK-1-4 Inhibitor I 0.001

MIS18A (UniProt Q9NYP9)
inactive: erlotinib -0.01 | [1] 0.031 | [2] 0.023 | [3] 0.037 | [4] -0.029 | [5] 0.017 | [6] 0.02 | [7] 0.018 | [8] -0.049 | IRAK-1-4 Inhibitor I -0.018

MIPEP (UniProt Q99797)
inactive: erlotinib -0.048 | [1] -0.06 | [2] 0.005 | [3] 0.021 | [4] 0.019 | [5] -0.029 | [6] -0.008 | [7] 0.006 | [8] 0.005 | IRAK-1-4 Inhibitor I -0.004

MOCS3 (UniProt O95396)
inactive: erlotinib 0.047 | [1] 0.01 | [2] -0.033 | [3] -0.135 | [4] -0.011 | [5] -0.003 | [6] -0.02 | [7] 0.143 | [8] -0.07 | IRAK-1-4 Inhibitor I 0.049

MMS19 isoform 8 (UniProt Q96T76)
inactive: erlotinib 0.026 | [1] -0.019 | [2] -0.016 | [3] -0.02 | [4] -0.009 | [5] 0.011 | [6] -0.099 | [7] 0.01 | [8] 0.034 | IRAK-1-4 Inhibitor I 0.004

MICOS10 (UniProt Q5TGZ0)
inactive: erlotinib -0.057 | [1] 0.047 | [2] 0.001 | [3] -0.084 | [4] -0.06 | [5] 0.08 | [6] 0.025 | [7] 0.007 | [8] 0.051 | IRAK-1-4 Inhibitor I 0.003

MOB4 (UniProt Q9Y3A3)
inactive: erlotinib 0.016 | [1] -0.018 | [2] 0.054 | [3] 0.041 | [4] 0.028 | [5] -0.025 | [6] 0.049 | [7] -0.002 | [8] 0.056 | IRAK-1-4 Inhibitor I 0.037

MPZL1 (UniProt O95297)
inactive: erlotinib -0.057 | [1] 0.068 | [2] -0.036 | [3] 0.003 | [4] -0.042 | [5] 0.017 | [6] -0.005 | [7] 0.015 | [8] -0.04 | IRAK-1-4 Inhibitor I 0.015

MPG (UniProt P29372)
inactive: erlotinib 0.015 | [1] 0.015 | [2] -0.021 | [3] -0.018 | [4] -0.02 | [5] 0.019 | [6] -0.09 | [7] -0.049 | [8] 0.02 | IRAK-1-4 Inhibitor I -0.009

MLXIP (UniProt Q9HAP2)
inactive: erlotinib 0.011 | [1] 0.003 | [2] 0.027 | [3] 0.01 | [4] -0.017 | [5] 0.04 | [6] -0.011 | [7] -0.025 | [8] -0.01 | IRAK-1-4 Inhibitor I 0.003

MINK1 (UniProt Q8N4C8)
inactive: erlotinib 0.057 | [1] 0.058 | [2] -0.059 | [3] 0.135 | [4] 0.045 | [5] -0.141 | [6] 0 | [7] 0.016 | [8] -0.037 | IRAK-1-4 Inhibitor I 0.061

MOCS2 (UniProt O96007)
inactive: erlotinib 0.029 | [1] 0.003 | [2] 0.047 | [3] 0.038 | [4] -0.045 | [5] 0.02 | [6] 0.002 | [7] -0.003 | [8] -0.006 | IRAK-1-4 Inhibitor I 0.008

MKRN1 (UniProt Q9UHC7)
inactive: erlotinib -0.039 | [1] -0.037 | [2] -0.021 | [3] -0.079 | [4] 0.031 | [5] 0.034 | [6] -0.159 | [7] 0.002 | [8] -0.009 | IRAK-1-4 Inhibitor I 0.089

MPC2 (UniProt O95563)
inactive: erlotinib 0.016 | [1] -0.015 | [2] 0 | [3] -0.026 | [4] 0.037 | [5] 0.022 | [6] -0.025 | [7] -0.009 | [8] 0.035 | IRAK-1-4 Inhibitor I 0.044

MICAL3 (UniProt Q7RTP6)
inactive: erlotinib 0.024 | [1] -0.037 | [2] 0.027 | [3] -0.025 | [4] -0.023 | [5] -0.013 | [6] -0.006 | [7] -0.032 | [8] 0.039 | IRAK-1-4 Inhibitor I -0.001

MON2 isoform 5 (UniProt Q7Z3U7)
inactive: erlotinib 0.031 | [1] -0.031 | [2] -0.018 | [3] 0.019 | [4] 0.001 | [5] -0.016 | [6] -0.021 | [7] 0.012 | [8] 0.04 | IRAK-1-4 Inhibitor I 0.009

MLST8 (UniProt Q9BVC4)
inactive: erlotinib 0.038 | [1] 0.008 | [2] -0.041 | [3] 0.015 | [4] 0.012 | [5] 0.015 | [6] 0.002 | [7] -0.091 | [8] 0.033 | IRAK-1-4 Inhibitor I -0.001

MPP1 (UniProt Q00013)
inactive: erlotinib 0.014 | [1] 0.017 | [2] -0.007 | [3] -0.008 | [4] -0.025 | [5] 0.014 | [6] -0.014 | [7] 0.003 | [8] 0.018 | IRAK-1-4 Inhibitor I -0.007

MLF2 (UniProt Q15773)
inactive: erlotinib 0.003 | [1] 0.034 | [2] 0.056 | [3] 0.036 | [4] 0.054 | [5] -0.028 | [6] -0.021 | [7] 0.083 | [8] 0.058 | IRAK-1-4 Inhibitor I 0

MRPL12 (UniProt P52815)
inactive: erlotinib 0.046 | [1] -0.02 | [2] -0.013 | [3] 0.041 | [4] -0.015 | [5] -0.015 | [6] 0.014 | [7] -0.007 | [8] 0.077 | IRAK-1-4 Inhibitor I -0.029

Quoted from the listing (9 entries):
MINK1 (UniProt Q8N4C8)
inactive: erlotinib 0.057 | [1] 0.058 | [2] -0.059 | [3] 0.135 | [4] 0.045 | [5] -0.141 | [6] 0 | [7] 0.016 | [8] -0.037 | IRAK-1-4 Inhibitor I 0.061

MOCS2 (UniProt O96007)
inactive: erlotinib 0.029 | [1] 0.003 | [2] 0.047 | [3] 0.038 | [4] -0.045 | [5] 0.02 | [6] 0.002 | [7] -0.003 | [8] -0.006 | IRAK-1-4 Inhibitor I 0.008

MKRN1 (UniProt Q9UHC7)
inactive: erlotinib -0.039 | [1] -0.037 | [2] -0.021 | [3] -0.079 | [4] 0.031 | [5] 0.034 | [6] -0.159 | [7] 0.002 | [8] -0.009 | IRAK-1-4 Inhibitor I 0.089

MPC2 (UniProt O95563)
inactive: erlotinib 0.016 | [1] -0.015 | [2] 0 | [3] -0.026 | [4] 0.037 | [5] 0.022 | [6] -0.025 | [7] -0.009 | [8] 0.035 | IRAK-1-4 Inhibitor I 0.044

MICAL3 (UniProt Q7RTP6)
inactive: erlotinib 0.024 | [1] -0.037 | [2] 0.027 | [3] -0.025 | [4] -0.023 | [5] -0.013 | [6] -0.006 | [7] -0.032 | [8] 0.039 | IRAK-1-4 Inhibitor I -0.001

MON2 isoform 5 (UniProt Q7Z3U7)
inactive: erlotinib 0.031 | [1] -0.031 | [2] -0.018 | [3] 0.019 | [4] 0.001 | [5] -0.016 | [6] -0.021 | [7] 0.012 | [8] 0.04 | IRAK-1-4 Inhibitor I 0.009

MLST8 (UniProt Q9BVC4)
inactive: erlotinib 0.038 | [1] 0.008 | [2] -0.041 | [3] 0.015 | [4] 0.012 | [5] 0.015 | [6] 0.002 | [7] -0.091 | [8] 0.033 | IRAK-1-4 Inhibitor I -0.001

MPP1 (UniProt Q00013)
inactive: erlotinib 0.014 | [1] 0.017 | [2] -0.007 | [3] -0.008 | [4] -0.025 | [5] 0.014 | [6] -0.014 | [7] 0.003 | [8] 0.018 | IRAK-1-4 Inhibitor I -0.007

MLF2 (UniProt Q15773)
inactive: erlotinib 0.003 | [1] 0.034 | [2] 0.056 | [3] 0.036 | [4] 0.054 | [5] -0.028 | [6] -0.021 | [7] 0.083 | [8] 0.058 | IRAK-1-4 Inhibitor I 0

More results follow.

MILR1 (UniProt Q7Z6M3)
inactive: erlotinib 0.115 | [1] 0.147 | [2] 0.184 | [3] -0.132 | [5] -0.03 | [6] 0.043 | [7] -0.043 | [8] 0.087 | IRAK-1-4 Inhibitor I 0.036

MKRN3 (UniProt Q13064)
inactive: erlotinib -0.026 | [1] 0.113 | [2] 0.207 | [3] 0.04 | [4] -0.099 | [5] 0 | [6] -0.044 | IRAK-1-4 Inhibitor I 0.027

MGAT1 (UniProt P26572)
inactive: erlotinib -0.065 | [1] 0.076 | [2] -0.031 | [3] 0.013 | [5] 0.035 | [6] -0.005 | [7] 0.013 | [8] 0.042 | IRAK-1-4 Inhibitor I -0.007

MGMT (UniProt P16455)
inactive: [5] -0.229 | IRAK-1-4 Inhibitor I -0.038

MIDEAS, A0A1C7CYX1
inactive: erlotinib -0.012 | [2] 0.062 | [5] 0.039 | IRAK-1-4 Inhibitor I 0.086

MROH1 (UniProt Q8NDA8)
inactive: [4] 0.002 | [5] -0.028 | [7] -0.016 | [8] 0.043 | IRAK-1-4 Inhibitor I 0.088
